According to PMC11461026:
No constants are given. Whether binding was seen depends on the method and setting. Tags and fused reporters may be left off the sequences shown.

T1: Pseudomonas syringae pv. tomato DC3000 effector HopK1, Gal4BD-tagged (Pseudomonas syringae pv. tomato DC3000) (UniProt Q88BH0)
T1 sequence: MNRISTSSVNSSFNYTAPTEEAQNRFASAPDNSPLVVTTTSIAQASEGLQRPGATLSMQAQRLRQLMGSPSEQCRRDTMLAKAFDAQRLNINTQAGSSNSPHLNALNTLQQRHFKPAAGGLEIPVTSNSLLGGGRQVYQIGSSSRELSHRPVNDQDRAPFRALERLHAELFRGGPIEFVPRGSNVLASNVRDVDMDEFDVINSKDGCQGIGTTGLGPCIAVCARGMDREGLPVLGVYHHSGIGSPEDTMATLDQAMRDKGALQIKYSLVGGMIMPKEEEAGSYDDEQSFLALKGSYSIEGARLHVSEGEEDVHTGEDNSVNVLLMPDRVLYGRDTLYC

B1: CONSTITUTIVE ACTIVE DEFENSE 1 (CAD1), Gal4AD-tagged (protein, UniProt Q9C7N2 1-561)
chain: MENRKGGNFSVPSSEALTTTLRNAIQALGRGFDVTSDVRLLYCKGAPGSRLVRIEEGQNRDLELSHGFLLPNVPADIDCSRGNSGTQRISVCSFHEMAEEFNVRSGVKGNIPLGCFNAMFNYTGSWQVDAASTKSLALVGYFIPLYDVKLAKLTLVLHNEIRRAVPSSWDPASLASFIENYGTHIVTSVTIGGRDVVYIRQHQSSPLPVSEIENYVNDMIKHRFHEAESQSITGPLKYKDKDITVIFRRRGGDDLEQSHARWAETVPAAPDIINMTFTPIVSLLEGVPGLRHLTRAIELYLEYKPPIEDLQYFLDYQIARAWAPEQSNLQRKEPVCSSLQFSLMGPKLFISADQVTVGRKPVTGLRLSLEGSKQNRLSIHLQHLVSLPKILQPHWDSHVPIGAPKWQGPEEQDSRWFEPIKWKNFSHVSTSPIEHTETHIGDLSGVHIVTGAQLGVWDFGSKNVLHLKLLFSKVPGCTIRRSVWDHTPVASSGRLEPGGPSTSSSTEEVSGQSGKLAKIVDSSEMLKGPQDLPGHWLVTGAKLGVEKGKIVLRVKYSLLNY
B2: NECROTIC SPOTTED LESIONS 1 (NSL1), Gal4AD-tagged (protein, UniProt Q9SGN6 1-612)
chain: MAFNNFTRLDAHSAAEKAVSVIGLGYDLCSDVRFSACKTTPDGSRLVEIDPTRNRDLIFPGGIVVNNVSSSIKCDKGERTRLRSDILSFNQMSEKFNQDMCLSGKIPSGMFNNMFAFSKCWPKDASSVKTLAYDGWFISLYSVEIVRKQLTLRDEVKREVPSSWDSAALAGFIEKYGTHVVVGVTMGGKDVIHVKQMRKSNHEPEEIQKMLKHWGDERFCVDPVESKSPASVYSGKPKEENLLQWGLQPFGTSVSSAVVMHTKNEEIMRVCIRRGGVDLGQSHERWLSTVSQAPNVISMCFVPITSLLSGLPGTGFLSHAVNLYLRYKPPIEELHQFLEFQLPRQWAPVYGDLPLGLRRSKQSSPSLQFSLMGPKLYVNTSKVDSGERPVTGLRFFLEGKKGNHLAIHLQHLSACPPSLHLSHDDTYEPIEEPVEKGYYVPVKWGIFSHVCTYPVQYNGARSDDTASIVTKAWLEVKGMGMRKVLFLRLGFSLDASAVTRKSCWDNLSTNSRKSGVFSMISTRLSTGLSPNPATTKPQSKIDINSAVYPRGPSPPVKPKLLSLVDTKEVMRGPEEQPGYWVVTGAKLCVEAGKISIKAKYSLLTVISEDSLV

What was measured:
[1] = target: Pseudomonas syringae pv. tomato DC3000 effector HopP1, Gal4BD-tagged (Pseudomonas syringae pv. tomato DC3000) (UniProt Q882F0); experiment: two-hybrid; AH109 yeast co-transformed with Gal4-DB effector baits (pDEST-DB) and Gal4-AD Arabidopsis preys (pDEST22); growth on -LWH against -LW plates, 30 C, three days; pairwise screen and dilution series
[2] = target: T1, Pseudomonas syringae pv. tomato DC3000 effector HopK1, Gal4BD-tagged (Pseudomonas syringae pv. tomato DC3000); experiment: as above

Row | Binder | binding [1] | binding [2]
1 | B1 | no binding | no binding
2 | B2 | no binding | no binding
